Assay results as given in paper PMC2848158.
Results are given in words; binding and its absence hold for the method and conditions named. In cells and extracts the contact can be indirect. Some results given as binding are weak or reduced against the parent protein; the word gives no strength.

Chains of the proteins cited; added tags and fusions are not shown. Lines headed by an entry give the natural chain unless they say otherwise; changes in a name come on top. A line that says so, or that is headed by a name, gives the form on record, which may keep a tag or linker.
GST-Runx1 from Homo sapiens (Q01196, form named): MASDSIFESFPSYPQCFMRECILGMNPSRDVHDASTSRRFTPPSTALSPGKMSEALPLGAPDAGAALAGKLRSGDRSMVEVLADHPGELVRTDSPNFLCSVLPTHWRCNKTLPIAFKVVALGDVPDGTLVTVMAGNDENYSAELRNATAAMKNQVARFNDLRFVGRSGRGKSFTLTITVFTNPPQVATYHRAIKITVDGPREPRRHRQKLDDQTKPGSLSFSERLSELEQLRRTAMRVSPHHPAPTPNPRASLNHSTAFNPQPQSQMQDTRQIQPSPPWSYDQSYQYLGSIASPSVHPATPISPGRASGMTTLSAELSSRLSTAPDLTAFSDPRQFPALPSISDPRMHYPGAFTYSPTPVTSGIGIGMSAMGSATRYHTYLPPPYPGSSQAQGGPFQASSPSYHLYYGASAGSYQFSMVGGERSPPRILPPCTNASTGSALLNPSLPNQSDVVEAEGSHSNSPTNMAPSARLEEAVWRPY
UniProt Q13761: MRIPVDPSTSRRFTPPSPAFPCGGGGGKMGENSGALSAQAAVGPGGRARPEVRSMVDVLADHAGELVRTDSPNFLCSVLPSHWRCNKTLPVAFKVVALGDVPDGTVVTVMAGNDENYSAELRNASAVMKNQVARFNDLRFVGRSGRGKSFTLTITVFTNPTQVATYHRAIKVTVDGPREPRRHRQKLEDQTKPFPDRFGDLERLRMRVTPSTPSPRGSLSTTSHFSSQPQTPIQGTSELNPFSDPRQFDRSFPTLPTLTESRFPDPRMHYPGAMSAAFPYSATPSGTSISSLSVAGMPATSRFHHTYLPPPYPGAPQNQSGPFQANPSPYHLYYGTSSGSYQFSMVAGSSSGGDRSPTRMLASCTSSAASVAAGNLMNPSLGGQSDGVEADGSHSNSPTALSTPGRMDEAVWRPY

Legend:
[1] = target: GST-Runx1 from Homo sapiens (Homo sapiens) (UniProt Q01196); test: pull-down; GST-Runx fusion proteins (1.5 μg) bound to 20 μl glutathione-Sepharose beads, incubated with nuclear extracts (150 μg) of ROS 17/2.8 cells cultured with 10^-8 M 1α,25-dihydroxyvitamin D3 for 18 h; VDR detected by Western blot; only the target purified
[2] = target: GST-Runx3 from Homo sapiens (Homo sapiens) (UniProt Q13761); test: as above

B1: endogenous mammalian VDR obtained from nuclear extracts of immortalized rat osteoblasts (protein, UniProt P13053 1-423)
chain: MEATAASTSLPDPGDFDRNVPRICGVCGDRATGFHFNAMTCEGCKGFFRRSMKRKALFTCPFNGDCRITKDNRRHCQACRLKRCVDIGMMKEFILTDEEVQRKREMIMKRKEEEALKDSLRPKLSEEQQHIIAILLDAHHKTYDPTYADFRDFRPPVRMDGSTGSYSPRPTLSFSGNSSSSSSDLYTTSLDMMEPSGFSNLDLNGEDSDDPSVTLDLSPLSMLPHLADLVSYSIQKVIGFAKMIPGFRDLTSDDQIVLLKSSAIEVIMLRSNQSFTMDDMSWDCGSQDYKYDVTDVSKAGHTLELIEPLIKFQVGLKKLNLHEEEHVLLMAICIVSPDRPGVQDAKLVEAIQDRLSNTLQTYIRCRHPPPGSHQLYAKMIQKLADLRSLNEEHSKQYRSLSFQPENSMKLTPLVLEVFGNEIS
**Q.** B1 was tested. Which binding [1] did it give?
**A.** Its binding is “binds”.

**Q.** What about the binding [2] of the same binder?
**A.** The binding was “binds”.
